No constants are given. Whether binding was seen depends on the method and setting. Some entries that bind do so weakly or less than the wild type.
Columns and labels:
[1] = target: H1-PR34 full-length HA (Influenza A virus A/Puerto Rico/8/34 (H1N1)) (UniProt P03452); assay: FACS, transfected 293T cells (H1-PR34)
[2] = target: H8-ON68 full-length HA (Influenza A virus A/turkey/Ontario/6118/68) (UniProt P03456); assay: FACS, transfected 293T cells (H8-ON68)
[3] = target: H2-JP57 full-length HA (Influenza A virus A/Japan/305/57 (H2N2)) (UniProt P03451); assay: FACS, transfected 293T cells
[4] = target: H2-JP57 full-length HA (Influenza A virus A/Japan/305/57 (H2N2)) (UniProt P03451); assay: FACS, transfected 293T cells (H2-JP57)

Amino acid sequences for entries named in this document (tags omitted). A change or cut given only in a name is not applied to a line headed by its entry. Residues count along the entry.
UniProt P03452, residues 18-565: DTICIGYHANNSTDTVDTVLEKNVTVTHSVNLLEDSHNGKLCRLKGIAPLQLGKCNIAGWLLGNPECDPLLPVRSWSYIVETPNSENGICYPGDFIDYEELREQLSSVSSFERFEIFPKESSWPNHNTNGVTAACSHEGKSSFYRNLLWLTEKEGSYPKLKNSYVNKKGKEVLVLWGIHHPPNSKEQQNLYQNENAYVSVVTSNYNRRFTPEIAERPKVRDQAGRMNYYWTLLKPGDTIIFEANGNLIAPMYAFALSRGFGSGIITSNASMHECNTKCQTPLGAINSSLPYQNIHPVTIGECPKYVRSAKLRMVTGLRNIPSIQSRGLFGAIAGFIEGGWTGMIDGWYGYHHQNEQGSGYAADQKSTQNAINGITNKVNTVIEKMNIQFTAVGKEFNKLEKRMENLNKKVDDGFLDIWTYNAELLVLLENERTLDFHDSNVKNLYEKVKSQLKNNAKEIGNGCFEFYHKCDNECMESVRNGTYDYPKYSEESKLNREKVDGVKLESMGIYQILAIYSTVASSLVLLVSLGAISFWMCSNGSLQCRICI
UniProt P03456: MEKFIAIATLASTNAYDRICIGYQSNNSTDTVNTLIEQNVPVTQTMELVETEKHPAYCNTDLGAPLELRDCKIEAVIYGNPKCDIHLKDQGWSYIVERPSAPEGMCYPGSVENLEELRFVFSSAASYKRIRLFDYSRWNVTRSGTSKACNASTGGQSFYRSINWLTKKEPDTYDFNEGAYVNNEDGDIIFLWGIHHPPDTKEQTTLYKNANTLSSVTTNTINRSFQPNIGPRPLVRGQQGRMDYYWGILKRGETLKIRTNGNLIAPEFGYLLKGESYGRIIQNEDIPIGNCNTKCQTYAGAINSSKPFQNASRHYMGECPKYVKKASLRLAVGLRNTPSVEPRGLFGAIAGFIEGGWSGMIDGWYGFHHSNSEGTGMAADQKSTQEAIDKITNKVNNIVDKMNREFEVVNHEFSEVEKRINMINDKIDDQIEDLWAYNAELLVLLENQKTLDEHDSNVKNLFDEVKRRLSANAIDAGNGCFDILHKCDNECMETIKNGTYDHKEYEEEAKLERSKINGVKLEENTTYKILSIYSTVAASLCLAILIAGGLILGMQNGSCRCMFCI

B1: D8-IgG1 (antibody, V domains shown)
VH: QVQLVQSGAEVKKPGSSVKVSCKASGGTFSAYAFTWVRQAPGQGLEWMGGITGMFGTANYAQKFQGRVTITADELTSTAYMELSSLTSEDTALYYCARGLYYYESSLDYWGQGTLVTVSS
VL: QSVLTQPPSASGSPGQSVTISCTGTSSDVGGYNSVSWYQQHPGKAPKLMIYEVTKRPSGVPDRFSASKSGNTASLTVSGLQAEDEADYFCCSYAGHSAYVFGTGTKVTVL
[1]
  binding: binds
[2]
  binding: binds

B2: F10-IgG1 (antibody, V domains shown)
VH: QVQLVQSGAEVKKPGSSVKVSCTSSEVTFSSFAISWVRQAPGQGLEWLGGISPMFGTPNYAQKFQGRVTITADQSTRTAYMDLRSLRSEDTAVYYCARSPSYICSGGTCVFDHWGQGTLVTVSS
VL: QPGLTQPPSVSKGLRQTATLTCTGNSNNVGNQGAAWLQQHQGHPPKLLSYRNNDRPSGISERFSASRSGNTASLTITGLQPEDEADYYCSTWDSSLSAVVFGGGTKLTVL
[3]
  binding: binds
[1]
  binding: binds
[4]
  binding: binds

— US20190062408A1
